Assay results taken from patent US20170215424A1 (SUMITOMO CHEMICAL COMPANY, LIMITED, priority 2014, published 2017).
Some of these results come from one statement about several compounds together.

Key:
[1] = system: Muscadomestica; experiment: Test Example 5: filter paper/sugar bait test on female imagoes of Muscadomestica; type: in vivo; conditions: 500 ppm, 0.7 ml on filter paper with sugar bait, after 24 hours
[2] = system: Culexpipienspallens; experiment: Test Example 4: larvicidal test in water on last instar larvae of Culexpipienspallens; type: in vivo; conditions: active ingredient concentration 3.5 ppm in water, after 8 days

Structure (SMILES)	dead vermin ratio [1] [%]	dead vermin ratio [2] [%]
O=C(NCC1CCOC1)C1=NOC(COc2cccc(Cl)c2)CC1 (stereo not drawn) [present amide compound (25), N-(tetrahydrofuran-3-ylmethyl)-6-(3-chloro-phenoxymethyl)-5,6-dihydro-4H-[1,2]oxazine-3-carboxamide]	≥ 100	
O=C(NCC1CCOC1)C1=NOC(CCCCCCOc2ccccc2)C1 (stereo not drawn) [present amide compound (10), N-(tetrahydrofuran-3-ylmethyl)-5-(6-phenoxyhexyl)-4,5-dihydroisoxazole-3-carboxamide]		≥ 90
O=C(NCC1CCOC1)C1=COC(COc2ccccc2)CC1 (stereo not drawn) [present amide compound (27), N-(tetrahydrofuran-3-ylmethyl)-6-phenoxymethyl-5,6-dihydro-4H-pyrane-3-carboxamide]	≥ 100	
O=C(NCC1CCOC1)C1=NOC(CCCCCOCc2ccccc2)C1 (stereo not drawn) [present amide compound (15), N-(tetrahydrofuran-3-ylmethyl)-5-(5-benzyloxypentyl)-4,5-dihydroisoxazole-3-carboxamide]	≥ 100	≥ 90
O=C(NCC1CCOC1)C1=NOC(CCc2ccccc2)C1 (stereo not drawn) [present amide compound (4), N-(tetrahydrofuran-3-ylmethyl)-5-phenethyl-4,5-dihydroisoxazole-3-carboxamide]	≥ 100	
CC1C(C(=O)NCC2CCOC2)=NOC1COc1ccccc1 (stereo not drawn) [present amide compound (22), N-(tetrahydrofuran-3-ylmethyl)-4-methyl-5-phenoxymethyl-4,5-dihydroisoxazole-3-carboxamide]	≥ 100	
O=C(NCC1CCOC1)C1=NOC(COc2ccc3ccccc3c2)C1 (stereo not drawn) [present amide compound (19), N-(tetrahydrofuran-3-ylmethyl)-5-(2-naphthyloxymethyl)-4,5-dihydroisoxazole-3-carboxamide]		≥ 90
O=C(NCC1CCOC1)C1=NOC(CCCOCCc2ccccc2)C1 (stereo not drawn) [present amide compound (18), N-(tetrahydrofuran-3-ylmethyl)-5-(3-phenethyloxypropyl)-4,5-dihydroisoxazole-3-carboxamide]		≥ 90
